The supplement of paper PMC12823440, “Inhibitors supercharge kinase turnover through native proteolytic circuits” (Nature, 2025)
Where a name gives a salt, the structure may show the parent alone. The list shows a part of the results. Hit calls seldom repeat between salt and free forms of one compound.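 Kinases, fused to nanoluciferase, were expressed in K562 cells; luminescence was measured every 4 h from 2 to 18 h as percent of control (DMSO = 100%, positive control = 0%). A time point is decreased if signal falls significantly (2 sigma). Hits were called by the authors by a rule that is not shown; the count of time points alone does not decide it.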

Amino acid sequences for entries named in this document (tags omitted). A change or cut given only in a name is not applied to a line headed by its entry.
UniProt Q8IWU2: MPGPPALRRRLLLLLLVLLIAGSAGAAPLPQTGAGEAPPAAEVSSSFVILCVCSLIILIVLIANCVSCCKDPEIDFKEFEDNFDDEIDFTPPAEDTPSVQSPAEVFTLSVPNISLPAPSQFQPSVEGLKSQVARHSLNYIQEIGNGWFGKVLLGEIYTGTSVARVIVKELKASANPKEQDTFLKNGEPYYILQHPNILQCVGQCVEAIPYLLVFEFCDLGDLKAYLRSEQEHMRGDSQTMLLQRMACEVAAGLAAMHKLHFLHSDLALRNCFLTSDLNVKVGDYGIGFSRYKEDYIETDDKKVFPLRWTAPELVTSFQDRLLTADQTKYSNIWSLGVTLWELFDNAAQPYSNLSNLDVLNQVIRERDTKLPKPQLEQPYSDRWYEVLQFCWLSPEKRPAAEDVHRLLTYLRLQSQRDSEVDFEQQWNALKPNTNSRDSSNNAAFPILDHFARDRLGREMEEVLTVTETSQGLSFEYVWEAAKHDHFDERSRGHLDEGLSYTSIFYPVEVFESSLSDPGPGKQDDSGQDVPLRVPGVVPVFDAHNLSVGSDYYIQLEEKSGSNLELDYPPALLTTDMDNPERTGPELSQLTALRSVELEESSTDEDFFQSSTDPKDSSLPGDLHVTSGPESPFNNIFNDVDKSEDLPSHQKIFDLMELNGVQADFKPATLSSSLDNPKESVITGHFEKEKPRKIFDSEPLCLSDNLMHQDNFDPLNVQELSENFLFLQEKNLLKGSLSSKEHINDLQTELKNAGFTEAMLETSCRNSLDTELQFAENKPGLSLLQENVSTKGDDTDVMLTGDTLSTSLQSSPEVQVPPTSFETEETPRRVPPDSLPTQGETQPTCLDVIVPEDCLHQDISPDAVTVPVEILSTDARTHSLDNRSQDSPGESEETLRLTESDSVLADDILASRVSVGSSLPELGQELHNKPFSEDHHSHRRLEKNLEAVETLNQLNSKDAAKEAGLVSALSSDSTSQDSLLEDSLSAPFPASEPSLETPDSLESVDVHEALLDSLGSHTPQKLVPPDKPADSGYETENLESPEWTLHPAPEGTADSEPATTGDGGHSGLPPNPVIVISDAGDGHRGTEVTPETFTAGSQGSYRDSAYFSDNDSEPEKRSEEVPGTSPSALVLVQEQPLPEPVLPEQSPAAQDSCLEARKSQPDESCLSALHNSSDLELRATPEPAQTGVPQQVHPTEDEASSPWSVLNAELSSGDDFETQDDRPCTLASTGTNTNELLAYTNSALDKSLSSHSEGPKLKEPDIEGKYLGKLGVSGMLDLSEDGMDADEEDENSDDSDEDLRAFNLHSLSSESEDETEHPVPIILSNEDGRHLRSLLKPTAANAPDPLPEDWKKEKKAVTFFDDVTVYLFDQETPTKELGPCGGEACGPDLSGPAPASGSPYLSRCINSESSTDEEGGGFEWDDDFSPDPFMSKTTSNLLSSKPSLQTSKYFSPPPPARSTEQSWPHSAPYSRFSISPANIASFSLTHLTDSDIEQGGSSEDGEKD
UniProt P07948: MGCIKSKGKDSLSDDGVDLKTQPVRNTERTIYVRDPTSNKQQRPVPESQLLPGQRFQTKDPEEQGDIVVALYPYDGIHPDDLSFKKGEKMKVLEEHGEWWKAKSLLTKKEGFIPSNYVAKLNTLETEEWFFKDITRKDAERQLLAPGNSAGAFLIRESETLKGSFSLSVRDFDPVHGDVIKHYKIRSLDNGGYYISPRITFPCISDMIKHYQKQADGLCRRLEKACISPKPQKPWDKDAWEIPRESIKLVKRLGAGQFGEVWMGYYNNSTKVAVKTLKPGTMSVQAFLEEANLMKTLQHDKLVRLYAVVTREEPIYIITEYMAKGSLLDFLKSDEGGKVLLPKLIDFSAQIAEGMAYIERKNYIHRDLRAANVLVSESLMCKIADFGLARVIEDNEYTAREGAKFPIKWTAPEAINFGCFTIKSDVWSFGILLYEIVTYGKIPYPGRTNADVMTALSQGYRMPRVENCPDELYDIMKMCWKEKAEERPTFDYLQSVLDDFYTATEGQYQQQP
UniProt Q16620, whole entry, looked up: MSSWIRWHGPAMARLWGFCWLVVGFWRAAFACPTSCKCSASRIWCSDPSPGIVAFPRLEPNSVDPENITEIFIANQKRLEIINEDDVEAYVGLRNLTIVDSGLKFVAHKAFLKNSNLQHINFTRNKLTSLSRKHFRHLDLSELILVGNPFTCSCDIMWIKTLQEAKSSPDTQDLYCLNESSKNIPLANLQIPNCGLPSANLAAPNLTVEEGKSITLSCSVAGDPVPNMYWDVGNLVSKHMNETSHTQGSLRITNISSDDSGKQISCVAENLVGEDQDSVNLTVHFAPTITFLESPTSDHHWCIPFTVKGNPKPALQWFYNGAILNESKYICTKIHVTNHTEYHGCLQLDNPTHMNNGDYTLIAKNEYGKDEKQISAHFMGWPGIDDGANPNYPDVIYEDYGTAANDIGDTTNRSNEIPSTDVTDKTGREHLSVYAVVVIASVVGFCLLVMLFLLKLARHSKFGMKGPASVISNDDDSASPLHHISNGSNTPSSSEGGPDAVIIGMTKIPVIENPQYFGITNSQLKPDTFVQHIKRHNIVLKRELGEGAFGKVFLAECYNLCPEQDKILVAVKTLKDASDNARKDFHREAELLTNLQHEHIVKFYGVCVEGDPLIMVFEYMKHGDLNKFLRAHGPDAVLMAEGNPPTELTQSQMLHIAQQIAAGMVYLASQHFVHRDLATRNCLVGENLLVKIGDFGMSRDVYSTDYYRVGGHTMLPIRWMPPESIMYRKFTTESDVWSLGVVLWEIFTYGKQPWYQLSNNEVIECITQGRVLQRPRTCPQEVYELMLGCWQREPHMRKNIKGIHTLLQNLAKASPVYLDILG
UniProt O96013: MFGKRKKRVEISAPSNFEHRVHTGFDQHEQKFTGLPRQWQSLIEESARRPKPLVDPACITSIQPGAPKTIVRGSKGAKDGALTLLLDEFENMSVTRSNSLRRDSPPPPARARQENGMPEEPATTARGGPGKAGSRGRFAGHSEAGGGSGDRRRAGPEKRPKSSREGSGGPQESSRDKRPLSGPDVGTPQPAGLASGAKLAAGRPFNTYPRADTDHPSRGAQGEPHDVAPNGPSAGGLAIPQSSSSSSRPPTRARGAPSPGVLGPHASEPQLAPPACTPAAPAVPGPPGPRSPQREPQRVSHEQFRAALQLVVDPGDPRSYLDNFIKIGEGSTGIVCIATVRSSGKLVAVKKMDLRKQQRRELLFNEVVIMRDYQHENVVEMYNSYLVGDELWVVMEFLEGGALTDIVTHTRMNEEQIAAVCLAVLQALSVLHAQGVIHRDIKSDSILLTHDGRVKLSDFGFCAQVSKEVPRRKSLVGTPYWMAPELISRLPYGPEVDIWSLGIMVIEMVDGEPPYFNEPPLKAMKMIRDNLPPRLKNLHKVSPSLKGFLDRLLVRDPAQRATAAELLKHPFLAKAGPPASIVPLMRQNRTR
UniProt Q96KB5: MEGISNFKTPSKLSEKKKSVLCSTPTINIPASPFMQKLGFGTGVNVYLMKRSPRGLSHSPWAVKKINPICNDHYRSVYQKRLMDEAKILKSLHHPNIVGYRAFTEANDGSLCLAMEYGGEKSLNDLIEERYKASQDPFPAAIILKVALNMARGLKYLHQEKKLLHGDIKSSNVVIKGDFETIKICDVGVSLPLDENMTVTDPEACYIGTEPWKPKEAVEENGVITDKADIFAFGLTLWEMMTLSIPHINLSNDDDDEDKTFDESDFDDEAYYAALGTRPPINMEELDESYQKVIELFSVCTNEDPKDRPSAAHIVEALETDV
UniProt P09619, whole entry: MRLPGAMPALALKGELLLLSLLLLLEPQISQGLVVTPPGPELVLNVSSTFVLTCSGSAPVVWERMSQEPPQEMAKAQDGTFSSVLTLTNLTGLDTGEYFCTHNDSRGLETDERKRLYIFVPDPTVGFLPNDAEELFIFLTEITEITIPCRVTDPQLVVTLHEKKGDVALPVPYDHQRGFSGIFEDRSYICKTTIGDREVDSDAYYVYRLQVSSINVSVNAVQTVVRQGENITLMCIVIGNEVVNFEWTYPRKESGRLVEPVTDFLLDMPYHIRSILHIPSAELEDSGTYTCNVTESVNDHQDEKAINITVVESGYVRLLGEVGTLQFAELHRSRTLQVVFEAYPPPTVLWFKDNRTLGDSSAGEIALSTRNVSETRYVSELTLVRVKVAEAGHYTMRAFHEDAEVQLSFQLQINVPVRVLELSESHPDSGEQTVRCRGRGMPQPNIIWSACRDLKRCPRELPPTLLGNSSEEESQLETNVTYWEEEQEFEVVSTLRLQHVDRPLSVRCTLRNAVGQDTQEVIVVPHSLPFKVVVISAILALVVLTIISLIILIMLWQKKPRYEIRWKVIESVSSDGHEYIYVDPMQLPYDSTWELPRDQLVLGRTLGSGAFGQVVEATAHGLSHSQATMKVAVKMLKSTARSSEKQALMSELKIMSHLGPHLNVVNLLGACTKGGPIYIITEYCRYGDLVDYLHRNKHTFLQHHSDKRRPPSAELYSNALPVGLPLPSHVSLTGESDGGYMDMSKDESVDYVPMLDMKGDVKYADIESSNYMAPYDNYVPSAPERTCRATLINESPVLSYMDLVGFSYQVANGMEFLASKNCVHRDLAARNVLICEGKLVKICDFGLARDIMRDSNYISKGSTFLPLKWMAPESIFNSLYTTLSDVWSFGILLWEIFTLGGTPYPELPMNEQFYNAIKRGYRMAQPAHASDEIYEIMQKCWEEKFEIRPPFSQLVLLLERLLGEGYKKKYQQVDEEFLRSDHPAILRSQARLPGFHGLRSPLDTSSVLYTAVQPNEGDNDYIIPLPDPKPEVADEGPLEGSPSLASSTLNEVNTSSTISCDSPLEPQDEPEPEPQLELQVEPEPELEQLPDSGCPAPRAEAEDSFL
UniProt Q9UBF8: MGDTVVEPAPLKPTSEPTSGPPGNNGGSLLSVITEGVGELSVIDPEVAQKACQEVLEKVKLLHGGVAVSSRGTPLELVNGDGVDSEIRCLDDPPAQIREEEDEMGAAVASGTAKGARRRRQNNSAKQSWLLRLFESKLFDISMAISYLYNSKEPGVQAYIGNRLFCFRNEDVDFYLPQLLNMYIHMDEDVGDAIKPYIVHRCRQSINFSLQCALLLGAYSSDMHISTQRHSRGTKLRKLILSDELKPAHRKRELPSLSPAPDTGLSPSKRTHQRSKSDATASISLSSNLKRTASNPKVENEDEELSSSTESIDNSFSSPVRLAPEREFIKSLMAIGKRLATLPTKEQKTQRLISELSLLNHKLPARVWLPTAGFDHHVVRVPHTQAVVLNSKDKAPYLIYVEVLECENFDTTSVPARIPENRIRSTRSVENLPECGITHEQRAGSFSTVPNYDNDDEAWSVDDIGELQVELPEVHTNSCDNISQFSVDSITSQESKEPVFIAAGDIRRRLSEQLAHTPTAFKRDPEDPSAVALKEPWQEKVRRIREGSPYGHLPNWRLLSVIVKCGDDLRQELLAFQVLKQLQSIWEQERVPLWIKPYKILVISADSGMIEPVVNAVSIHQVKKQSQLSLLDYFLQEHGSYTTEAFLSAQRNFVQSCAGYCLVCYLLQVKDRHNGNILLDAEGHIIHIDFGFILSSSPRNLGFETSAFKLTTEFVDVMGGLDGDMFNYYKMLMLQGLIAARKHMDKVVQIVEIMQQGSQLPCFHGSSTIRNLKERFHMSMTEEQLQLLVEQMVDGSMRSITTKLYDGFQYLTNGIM
UniProt P53350, whole entry: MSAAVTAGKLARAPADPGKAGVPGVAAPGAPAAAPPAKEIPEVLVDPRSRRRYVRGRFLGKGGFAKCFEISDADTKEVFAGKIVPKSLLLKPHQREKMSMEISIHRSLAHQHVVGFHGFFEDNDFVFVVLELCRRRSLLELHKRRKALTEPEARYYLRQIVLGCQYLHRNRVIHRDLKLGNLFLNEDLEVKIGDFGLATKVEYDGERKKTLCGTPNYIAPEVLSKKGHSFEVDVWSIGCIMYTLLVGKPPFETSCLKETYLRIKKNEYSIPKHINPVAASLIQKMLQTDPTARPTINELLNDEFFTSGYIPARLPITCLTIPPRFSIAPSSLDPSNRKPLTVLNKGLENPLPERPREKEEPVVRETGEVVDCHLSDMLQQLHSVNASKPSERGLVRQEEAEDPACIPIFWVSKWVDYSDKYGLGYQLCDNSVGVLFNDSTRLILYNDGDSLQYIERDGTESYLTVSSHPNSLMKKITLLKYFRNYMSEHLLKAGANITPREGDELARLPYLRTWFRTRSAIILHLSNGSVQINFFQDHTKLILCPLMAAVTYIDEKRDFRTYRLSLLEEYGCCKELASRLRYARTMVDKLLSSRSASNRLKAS

Legend:
Assay in all cases: number of time points (of 5) at which kinase-Nluc abundance scored as decreased, DMSO-normalised (count); higher = more persistent destabilization
Conditions in all cases: K562; 2-18 h
LMTK2 = LMTK2 (UniProt Q8IWU2)
LYN = LYN (UniProt P07948)
MAP2K1 = MAP2K1 (UniProt Q02750)
MAP2K2 = MAP2K2 (UniProt P36507)
MAP4K2 = MAP4K2 (UniProt Q12851)
MAPK1 = MAPK1 (UniProt P28482)
MAPK4 = MAPK4 (UniProt P31152)
MAPKAPK2 = MAPKAPK2 (UniProt P49137)
MKNK1 = MKNK1 (UniProt Q9BUB5)
NTRK2 = NTRK2 (UniProt Q16620)
NTRK3 = NTRK3 (UniProt Q16288)
PAK4 = PAK4 (UniProt O96013)
PBK = PBK (UniProt Q96KB5)
PDGFRB = PDGFRB (UniProt P09619)
PDK1 = PDK1 (UniProt Q15118)
PDPK1 = PDPK1 (UniProt O15530)
PIK4CA = PIK4CA (UniProt P42356)
PIK4CB = PIK4CB (UniProt Q9UBF8)
PLK1 = PLK1 (UniProt P53350)
PRKAA1 = PRKAA1 (UniProt Q13131)

Row | SMILES | number of time points (LMTK2) | number of time points (LYN) | number of time points (MAP2K1) | number of time points (MAP2K2) | number of time points (MAP4K2) | number of time points (MAPK1) | number of time points (MAPK4) | number of time points (MAPKAPK2) | number of time points (MKNK1) | number of time points (NTRK2) | number of time points (NTRK3) | number of time points (PAK4) | number of time points (PBK) | number of time points (PDGFRB) | number of time points (PDK1) | number of time points (PDPK1) | number of time points (PIK4CA) | number of time points (PIK4CB) | number of time points (PLK1) | number of time points (PRKAA1)
1 | CCn1c(=O)c(-c2ccc(-c3cncs3)cc2Cl)cc2cnc(Nc3ccc(N4CCN(C)CC4)cc3)nc21 (2.5 µM) | 0 | 0 | 0 | 0 | 0 | 0 | 0 | 0 | 0 | 0 | 0 | 0 | 0 | 0 | 0 | 0 | 0 | 0 | 0 | 0
2 | O=C(Nc1nc2ccccc2[nH]1)c1cccc(-n2cccc2)c1 (10 µM) | 0 | 0 | 0 | 0 | 0 | 0 | 0 | 0 | 0 | 0 | 0 | 0 | 0 | 0 | 0 | 0 | 0 | 0 | 0 | 0
3 | O=C(O)c1cc(O)ccc1O [2,5-Dihydroxybenzoic acid] (10 µM) | 0 | 0 | 0 | 0 | 0 | 0 | 0 | 0 | 0 | 0 | 0 | 0 | 0 | 0 | 0 | 0 | 0 | 0 | 0 | 0
4 | COC1(c2sc3c(N4CCOCC4)nc(-c4cnc(N)nc4)nc3c2C)COC1 (2.5 µM) | 0 | 0 | 0 | 0 | 0 | 0 | 0 | 0 | 0 | 0 | 0 | 0 | 0 | 0 | 0 | 0 | 0 | 0 | 0 | 0
5 | COc1cc(S(C)(=O)=O)ccc1Nc1nc2ccc(-c3ccc(NC(=O)[C@H](C)c4ccc(F)cc4)cc3)cn2n1 [Empesertib] (10 µM) | 0 | 0 | 0 | 0 | 0 | 0 | 0 | 0 | 0 | 0 | 0 | 0 | 0 | 0 | 0 | 0 | 0 | 0 | 0 | 0
6 | O=C(CNC(=O)c1ccc(-c2ccccc2)cc1)NC1CCCc2ccccc21 (stereo not given) [TAO Kinase inhibitor 1] (10 µM) | 0 | 0 | 0 | 0 | 0 | 0 | 0 | 0 | 0 | 0 | 0 | 0 | 0 | 0 | 0 | 0 | 0 | 0 | 0 | 0
7 | O=C(/C=C/c1ccc(O)c(O)c1)c1ccc(O[C@@H]2O[C@H](CO)[C@@H](O)[C@H](O)[C@H]2O)c(O)c1O [Marein] (10 µM) | 0 | 0 | 0 | 0 | 0 | 0 | 0 | 0 | 0 | 0 | 0 | 0 | 0 | 0 | 0 | 0 | 0 | 0 | 0 | 0
8 | N#CC(c1ccnc(NCCc2cccnc2)n1)c1nc2ccccc2s1 (stereo not given) (10 µM) | 0 | 0 | 0 | 0 | 0 | 0 | 0 | 0 | 0 | 0 | 0 | 0 | 0 | 0 | 0 | 0 | 0 | 0 | 0 | 0
9 | COc1ccc2c(c1O)OC(C)(C)c1c-2ccc2c1C(=O)N(c1ccc(C(=O)c3ccccc3)cc1)C2=O [Ampkinone] (10 µM) | 0 | 0 | 0 | 0 | 0 | 0 | 0 | 0 | 0 | 0 | 0 | 0 | 0 | 0 | 0 | 0 | 0 | 0 | 0 | 0
10 | c1cc2c(cc1O[C@H]1OC[C@H]3[C@@H]1CO[C@@H]3c1ccc3c(c1)OCO3)OCO2 [Sesamolin] (10 µM) | 0 | 0 | 0 | 0 | 0 | 0 | 0 | 0 | 0 | 0 | 0 | 0 | 0 | 0 | 0 | 0 | 0 | 0 | 0 | 0
11 | Nc1ncnc2c1c(-c1ccc(Oc3ccccc3)cc1)nn2C1CCCNC1 (racemic) (2.5 µM) | 0 | 0 | 0 | 0 | 0 | 0 | 0 | 0 | 0 | 0 | 0 | 0 | 0 | 0 | 0 | 0 | 0 | 0 | 0 | 0
12 | CC(C)CN[C@H]1CS(=O)(=O)C[C@@H]1S(=O)(=O)c1ccc(Cl)cc1 (10 µM) | 0 | 0 | 0 | 0 | 0 | 0 | 0 | 0 | 0 | 0 | 0 | 0 | 0 | 0 | 0 | 0 | 0 | 0 | 0 | 0
13 | C=CC(=O)Nc1cccc(C)c1Nc1ncc2cc(-c3c(Cl)c(OC)cc(OC)c3Cl)ccc2n1 (2.5 µM) | 0 | 0 | 0 | 0 | 0 | 0 | 0 | 0 | 0 | 0 | 0 | 0 | 0 | 0 | 0 | 2 | 0 | 0 | 0 | 0
14 | COc1ccc(C(=C2C(=O)Nc3ccccc32)c2ccc(OC)cc2)cc1 (10 µM) | 0 | 0 | 0 | 0 | 0 | 0 | 0 | 0 | 0 | 0 | 0 | 0 | 0 | 0 | 0 | 0 | 0 | 0 | 0 | 0
15 | C=C(CCC=C(C)C)[C@H]1CC[C@]2(C)[C@@H]1[C@H](O)C[C@@H]1[C@@]3(C)CC[C@H](O[C@@H]4O[C@H](CO)[C@@H](O)[C@H](O)[C@H]4O[C@@H]4O[C@H](CO)[C@@H](O)[C@H](O)[C@H]4O)C(C)(C)[C@@H]3CC[C@]12C [Ginsenoside Rk1] (10 µM) | 0 | 0 | 0 | 0 | 0 | 0 | 0 | 0 | 0 | 0 | 0 | 0 | 0 | 0 | 0 | 0 | 0 | 0 | 0 | 0
16 | COc1ccc(C(=O)Nc2sc3c(c2C(N)=O)CCCC3)cc1OC (10 µM) | 0 | 0 | 0 | 0 | 0 | 0 | 0 | 0 | 0 | 0 | 0 | 0 | 0 | 0 | 0 | 0 | 0 | 0 | 0 | 0
17 | Cc1csc(-c2nnc(Nc3ccc(Oc4ncccc4-c4ccnc(N)n4)cc3)c3ccccc23)c1 (2.5 µM) | 0 | 0 | 0 | 0 | 0 | 0 | 0 | 0 | 0 | 0 | 0 | 0 | 0 | 0 | 0 | 0 | 0 | 0 | 0 | 0
18 | O=[N+]([O-])c1cc(C(F)(F)F)cc([N+](=O)[O-])c1NNC(=S)Nc1ccc(F)cc1 (10 µM) | 0 | 0 | 0 | 0 | 0 | 0 | 0 | 0 | 0 | 0 | 0 | 0 | 0 | 0 | 0 | 0 | 0 | 0 | 0 | 0
19 | COc1cc2ncnc(Nc3cccc(Cl)c3)c2cc1OC (10 µM) | 0 | 0 | 0 | 0 | 0 | 0 | 0 | 0 | 0 | 0 | 0 | 0 | 0 | 0 | 0 | 0 | 0 | 0 | 0 | 0
20 | CN1CCN(c2ccc(C(=O)Nc3cc(-c4cccc(NS(=O)(=O)c5ccccc5)c4)[nH]n3)cc2)CC1 [BPR1J-097 Hydrochloride] (2.5 µM) | 1 | 0 | 0 | 0 | 0 | 0 | 0 | 0 | 1 | 0 | 0 | 0 | 0 | 0 | 0 | 0 | 0 | 0 | 0 | 0
21 | C[C@@]1(O)CCC[C@H]1n1c(=O)c(C(F)F)cc2cnc(NC3CCN(S(C)(=O)=O)CC3)nc21 (2.5 µM) | 2 | 0 | 0 | 0 | 0 | 0 | 0 | 0 | 0 | 0 | 1 | 0 | 0 | 3 | 0 | 1 | 0 | 0 | 0 | 0
22 | CCN(CC)S(=O)(=O)c1ccc(OC)c(N2CCN(C(=O)c3ccc(F)cc3C(F)(F)F)CC2)c1 (10 µM) | 0 | 0 | 0 | 0 | 0 | 0 | 0 | 0 | 0 | 0 | 0 | 0 | 0 | 0 | 0 | 0 | 0 | 0 | 0 | 0

Record cards (already shown). Order of values: number of time points (LMTK2) | number of time points (LYN) | number of time points (MAP2K1) | number of time points (MAP2K2) | number of time points (MAP4K2) | number of time points (MAPK1) | number of time points (MAPK4) | number of time points (MAPKAPK2) | number of time points (MKNK1) | number of time points (NTRK2) | number of time points (NTRK3) | number of time points (PAK4) | number of time points (PBK) | number of time points (PDGFRB) | number of time points (PDK1) | number of time points (PDPK1) | number of time points (PIK4CA) | number of time points (PIK4CB) | number of time points (PLK1) | number of time points (PRKAA1)
O=C(Nc1nc2ccccc2[nH]1)c1cccc(-n2cccc2)c1 (10 µM) reads 0 | 0 | 0 | 0 | 0 | 0 | 0 | 0 | 0 | 0 | 0 | 0 | 0 | 0 | 0 | 0 | 0 | 0 | 0 | 0
C=CC(=O)Nc1cccc(C)c1Nc1ncc2cc(-c3c(Cl)c(OC)cc(OC)c3Cl)ccc2n1 (2.5 µM) reads 0 | 0 | 0 | 0 | 0 | 0 | 0 | 0 | 0 | 0 | 0 | 0 | 0 | 0 | 0 | 2 | 0 | 0 | 0 | 0
